Data as given in PubChem BioAssay AID1224829 (NIAID, 2016).
Here is a random part of about 3,800 reagents tested. 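Calls cover raised and lowered translocation; gene median uses one vendor's three siRNAs; qiagen siRNAs acted more weakly than ambion siRNAs.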 Unmarked entries are inactive. The numbers tell different reagents against one gene apart.

Assay: 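Secondary check of hits that alter LPS-induced p65 translocation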 (follow-up of hits)
Cells: mouse RAW264.7 G9 macrophage reporter cells
Knock-down reagent: single siRNA against mouse genes, 100 nM
Time to read-out: 2 days of siRNA knock-down, then 40 min of LPS before fixing
Treatment: LPS (Salmonella minnesota R595) at 10 ng/ml
Detection: 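Imaging of GFP-p65 after 40 min of LPS; nuclear over perinuclear ring intensity ratio, scaled to plate median and non-targeting control wells, given as z-score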
Reading the numbers: p65 translocation z-score and gene median z-score, per vendor: higher = more nuclear NF-kappaB p65 after LPS
Hit rule: 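Active means the replicate-mean z-score lies beyond plus or minus 2, in either direction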
Calls: active = changed p65 translocation (either direction); inactive = no clear change

target gene | siRNA no. | siRNA vendor or control pool | p65 translocation z-score, replicate mean | p65 translocation z-score, replicate 1 | p65 translocation z-score, replicate 2 | gene median z-score, per vendor
Spryd7 (SPRY domain containing 7) | 1 | ambion single siRNA | 0.708 | 0.357 | 1.06 | 0.837
Spryd7 (SPRY domain containing 7) | 2 | ambion single siRNA | -1.4 | 0.614 | -3.42 | 0.837
Spryd7 (SPRY domain containing 7) | 3 | ambion single siRNA | 4.16 (active) | 5.93 | 2.39 | 0.837
Spryd7 (SPRY domain containing 7) | 4 | qiagen single siRNA | 0.783 | 1.51 | 0.0581 | -0.0319
Spryd7 (SPRY domain containing 7) | 5 | qiagen single siRNA | -2.35 (active) | -3.35 | -1.34 | -0.0319
Spryd7 (SPRY domain containing 7) | 6 | qiagen single siRNA | 0.67 | -0.122 | 1.46 | -0.0319
Or5ar1 (olfactory receptor family 5 subfamily AR member 1) | 1 | ambion single siRNA | -2.2 (active) | -2.42 | -1.98 | -2.71
Or5ar1 (olfactory receptor family 5 subfamily AR member 1) | 2 | ambion single siRNA | – | – | – | -2.71
Or5ar1 (olfactory receptor family 5 subfamily AR member 1) | 3 | ambion single siRNA | -3.03 (active) | -3.06 | -2.99 | -2.71
Or5ar1 (olfactory receptor family 5 subfamily AR member 1) | 4 | qiagen single siRNA | -0.183 | -0.213 | -0.154 | -1.13
Or5ar1 (olfactory receptor family 5 subfamily AR member 1) | 5 | qiagen single siRNA | -4.68 (active) | -3.99 | -5.36 | -1.13
Or5ar1 (olfactory receptor family 5 subfamily AR member 1) | 6 | qiagen single siRNA | -0.715 | -2.04 | 0.613 | -1.13
Efna5 (ephrin A5) | 1 | ambion single siRNA | -4.94 (active) | -3.85 | -6.02 | -4.1
Efna5 (ephrin A5) | 2 | ambion single siRNA | -4.36 (active) | -4.1 | -4.61 | -4.1
Efna5 (ephrin A5) | 3 | ambion single siRNA | -3.66 (active) | -3.66 | – | -4.1
Efna5 (ephrin A5) | 4 | qiagen single siRNA | -0.316 | -0.395 | -0.238 | -0.316
Efna5 (ephrin A5) | 5 | qiagen single siRNA | -1.1 | -1.42 | -0.782 | -0.316
Efna5 (ephrin A5) | 6 | qiagen single siRNA | 1.84 | 0.985 | 2.69 | -0.316
Ier5 (immediate early response 5) | 1 | ambion single siRNA | -1.66 | -2.04 | -1.27 | -1.83
Ier5 (immediate early response 5) | 2 | ambion single siRNA | -1.46 | -0.753 | -2.17 | -1.83
Ier5 (immediate early response 5) | 3 | ambion single siRNA | -2.35 (active) | -1.62 | -3.08 | -1.83
Htra2 (HtrA serine peptidase 2) | 1 | ambion single siRNA | -0.159 | 0.24 | -0.559 | -0.41
Htra2 (HtrA serine peptidase 2) | 2 | ambion single siRNA | -2.88 (active) | -3.34 | -2.43 | -0.41
Htra2 (HtrA serine peptidase 2) | 3 | ambion single siRNA | 0.00995 | -0.261 | 0.281 | -0.41
Htra2 (HtrA serine peptidase 2) | 4 | qiagen single siRNA | 2.61 (active) | 2.37 | 2.85 | 1.36
Htra2 (HtrA serine peptidase 2) | 5 | qiagen single siRNA | -0.703 | -1.61 | 0.202 | 1.36
Htra2 (HtrA serine peptidase 2) | 6 | qiagen single siRNA | 1.86 | 0.357 | 3.35 | 1.36
Grhl1 (grainyhead like transcription factor 1) | 1 | ambion single siRNA | -0.74 | -0.855 | -0.625 | -2.48
Grhl1 (grainyhead like transcription factor 1) | 2 | ambion single siRNA | -2.48 (active) | -2.38 | -2.58 | -2.48
Grhl1 (grainyhead like transcription factor 1) | 3 | ambion single siRNA | -8.94 (active) | -10.1 | -7.81 | -2.48
Grhl1 (grainyhead like transcription factor 1) | 4 | qiagen single siRNA | -0.977 | -1.14 | -0.81 | -0.81
Grhl1 (grainyhead like transcription factor 1) | 5 | qiagen single siRNA | -0.945 | -1.17 | -0.721 | -0.81
Grhl1 (grainyhead like transcription factor 1) | 6 | qiagen single siRNA | -0.382 | -0.382 | – | -0.81
Irf2bpl (interferon regulatory factor 2 binding protein-like) | 1 | ambion single siRNA | 2.37 (active) | 2.32 | 2.42 | 1.25
Irf2bpl (interferon regulatory factor 2 binding protein-like) | 2 | ambion single siRNA | 2.32 (active) | 4.45 | 0.182 | 1.25
Irf2bpl (interferon regulatory factor 2 binding protein-like) | 3 | ambion single siRNA | -1.67 | -2.11 | -1.22 | 1.25
Irf2bpl (interferon regulatory factor 2 binding protein-like) | 4 | qiagen single siRNA | -0.93 | -2.38 | 0.518 | -0.533
Irf2bpl (interferon regulatory factor 2 binding protein-like) | 5 | qiagen single siRNA | 3.51 (active) | 2.86 | 4.15 | -0.533
Irf2bpl (interferon regulatory factor 2 binding protein-like) | 6 | qiagen single siRNA | -2.05 (active) | -1.58 | -2.51 | -0.533
Itpr1 (inositol 1,4,5-trisphosphate receptor 1) | 1 | ambion single siRNA | -2.85 (active) | -3.55 | -2.16 | -2.34
Itpr1 (inositol 1,4,5-trisphosphate receptor 1) | 2 | ambion single siRNA | -0.475 | -0.206 | -0.744 | -2.34
Itpr1 (inositol 1,4,5-trisphosphate receptor 1) | 3 | ambion single siRNA | -2.75 (active) | -2.53 | -2.97 | -2.34
Itpr1 (inositol 1,4,5-trisphosphate receptor 1) | 4 | qiagen single siRNA | 1.54 | -0.548 | 3.63 | -2.41
Itpr1 (inositol 1,4,5-trisphosphate receptor 1) | 5 | qiagen single siRNA | -3.48 (active) | -3.48 | – | -2.41
Itpr1 (inositol 1,4,5-trisphosphate receptor 1) | 6 | qiagen single siRNA | -3.57 (active) | -2.41 | -4.72 | -2.41
Dusp13b (dual specificity phosphatase 13B) | 1 | ambion single siRNA | -5.41 (active) | -4.85 | -5.98 | -1.09
Dusp13b (dual specificity phosphatase 13B) | 2 | ambion single siRNA | -0.758 | -1.12 | -0.393 | -1.09
Dusp13b (dual specificity phosphatase 13B) | 3 | ambion single siRNA | -0.0925 | 0.863 | -1.05 | -1.09
Dusp13b (dual specificity phosphatase 13B) | 4 | qiagen single siRNA | 2.18 (active) | 1.75 | 2.61 | -0.984
Dusp13b (dual specificity phosphatase 13B) | 5 | qiagen single siRNA | -0.984 | -1.57 | -0.394 | -0.984
Dusp13b (dual specificity phosphatase 13B) | 6 | qiagen single siRNA | -1.82 | -1.69 | -1.95 | -0.984
